Experimental data published in patent US20220146526A1, “METHOD FOR EVALUATING SAMPLE, ANALYSIS METHOD, METHOD FOR DETECTING DEGRADED SAMPLE, MARKER FOR DETECTING DEGRADED BLOOD PLASMA SAMPLE, AND MARKER FOR DETECTING DEGRADED SERUM SAMPLE” (SHIMADZU CORPORATION, priority 2019, published 2022).

Legend:
Assay type in all cases: physicochemical, human
[1] = LC/MS of serum sample: time from blood collection to centrifugation (Table J)
Method: (§1) After standing, the blood sample was subjected to centrifugation under a condition of room temperature, 3500 rpm, and 5 minutes. […] After centrifugation, the blood-collecting vessel was left to stand at room temperature, and the serum was isolated during this time. Here, in order to investigate how the detection intensity of molecules contained in the sample was affected in cases where the time during which the blood-collecting vessel was left at room temperature was set to 1 hour and 6 hours as compared to that in a case where the time was set to 30 minutes, preparations were performed under the respective conditions of 30 minutes, 1 hour, and 6 hours. The obtained serum sample was frozen and stored. Here, in order to investigate how the detection intensity of molecules contained in the sample was affected in cases where freezing and thawing was performed 4 times, 6 times, and 10 times after freezing as compared to that in a case where freezing and thawing was performed 2 times after freezing, freezing and thawing was performed under the respective conditions of 2, 4, 6, and 10 times.
(§2) Frozen blood plasma samples and serum samples were subjected to GC/MS or LC/MS. In GC/MS, the blood plasma samples and serum samples were subjected to methoxymation and trimethylsilylation and then introduced to GC-MS.
(§3) Analysis column: Discovery HS F5-3 (inner diameter of 2.1 mm, length of 150 mm, film thickness of 3 μm) (Sigma-Aldrich)
(§4) Column temperature: 40° C.
(§5) (A) 0.1% formic acid (dissolved in water)
(§6) (B) 0.1% formic acid (dissolved in acetonitrile)
(§7) Flow velocity: 0.25 mL/min
(§8) Ionization method: electrospray
(§9) Temperature: • Desolvation Line (DL) temperature: 250° C. • Heat block temperature: 400° C. • Interface temperature: 300° C.
(§10) Gas flow rate: • Nebulizer gas flow rate: 3.0 L/min • Drying gas flow rate: 10.0 L/min • Heating gas flow rate: 10.0 L/min
Mode: multiple reaction monitoring (MRM) […]

[2] = LC/MS of serum sample: number of times of freezing and thawing (Table M); parameters: key to Rate of increase or decrease: detection intensity relative to 1 at 2 freeze-thaw cycles
Method: as §1, §2, §3, §4, §5, §6, §7, §8, §9, §10
Mode: multiple reaction monitoring (MRM)
The rate of increase or decrease in Table M is the value of detection intensity relative to 1 that is the detection intensity in a case where the number of times of freezing and thawing is set to 2 times.

[3] = LC/MS of blood plasma sample: time from blood collection to cooling of blood (Table E); conditions: detection intensity, blood collection to cooling 5 minutes or more vs 1 minute or less
Method: At room temperature, 5 mL of blood from a healthy subject was taken into a blood-collecting vessel containing EDTA, and the blood-collecting vessel was inverted for mixing, then cooled, and allowed to stand at 4° C. Here, in order to investigate how the detection intensity of molecules contained in the sample was affected in a case where the time to cooling was set to 5 minutes or more as compared to that in a case where the time to cooling was set to 1 minute or less, preparations were performed under both the former condition and the latter condition. After standing, the blood sample was subjected to centrifugation under a condition of 4° C., 3000 rpm, and 15 minutes. […] After centrifugation, the blood-collecting vessel was left to stand at room temperature for 30 minutes, and the blood plasma was isolated during this 30 minutes. The obtained blood plasma sample was frozen and stored. Here, in order to investigate how the detection intensity of molecules contained in the sample was affected in cases where freezing and thawing was performed 4 times, 6 times, and 10 times after freezing as compared to that in a case where freezing and thawing was performed 2 times after freezing, freezing and thawing was performed under the respective conditions of 2, 4, 6, and 10 times.
Frozen blood plasma samples and serum samples were subjected to GC/MS or LC/MS. […]

In the case of `NCCC[C@H](N)C(=O)O` [Ornithine], the “Rate of increase or decrease” value ([1]; after 4 hours from blood collection to centrifugation, detection intensity relative to 1 at 15 minutes) is reported as 1.48, the Increase or decrease ([1]; serum sample, LC/MS, detection intensity vs 15 minutes from blood collection to centrifugation) is reported as “Increase” and the “Time when compound is affected” value ([1]; serum sample, LC/MS, time from blood collection to centrifugation, detection intensity changed by 30% or more vs 15 minutes) is reported as “After 4 hours”. The “Rate of increase or decrease” value ([2]; 10 times of freezing and thawing, detection intensity relative to 1 at 2 times) was 1.31, the “Number of times when compound is affected” value ([2]; serum sample, LC/MS, detection intensity changed by 30% or more vs 2 times of freezing and thawing) was 10 times and the Increase or decrease ([2]; serum sample, LC/MS, detection intensity vs 2 times of freezing and thawing) was “Increase”. The Increase or decrease [3] was “Increase”.
